Experimental data: patent EP4786496A1
Results are given in words; binding and its absence hold for the method and conditions named. Some entries that bind do so weakly or less than the wild type.

Protein sequences, listed by entry. Tags and fused reporters are not part of them. Lines headed by an entry give the natural chain unless they say otherwise; changes in a name come on top.
UniProt Q96RJ3: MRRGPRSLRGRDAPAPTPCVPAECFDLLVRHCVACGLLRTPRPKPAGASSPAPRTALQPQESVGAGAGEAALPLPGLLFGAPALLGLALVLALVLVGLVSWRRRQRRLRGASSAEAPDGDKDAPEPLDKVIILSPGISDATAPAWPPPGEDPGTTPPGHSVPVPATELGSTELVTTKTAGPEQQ

Assays:
[1] = target: ACRO-BAFF-R-Fc (Acro-human BAFF-R Protein,his tag; ACRObiosystem BAFF-R-H52H5) (human) (UniProt Q96RJ3); assay: phage ELISA
[2] = target: Recombinant biotinylated Human BAFF-R Protein (KACTUS, BAFF-R-HM401) (human) (UniProt Q96RJ3); assay: phage ELISA

B1: Clone 1 (monoclonal phage antibody) (scFv, V domains shown)
VH: EVQLVESGAEVKKPGASVKVSCKASGYTFTSYGISWVRQAPGQGLEWMGWISAYNGNTNYAQKLQGRVTMTTDTSTSTAYMELRSLRSDDTAVYYCARNTYYYDSSGYPNDAFDIWGQGTTVTVSS
VL: DIQMTQSPSSLSASVGDRVTITCRASQKISSYLNWYQQKPGKAPKLLIYAASSLQSGVPSRFSGSGSGADFTLTISSLQPEDFATYYCQQSYSPPTTFGGGTKVDIKR
binding [1]: binds
binding [2]: binds
